Test results from paper PMC10531764.
Construct, isoform or probe ends are uncertain for at least one entry. For part of these data: Where cells or extracts were used, other partners may take part. Where a protein sequence is shown, tags need not be part of it. For part of these data: At least one verdict was read from the data and is not stated in words by the source.

How the values were obtained:
Assay in all cases: EMSA
[1] = target: T1, IRP1 in AML blast lysate (human) (UniProt P21399); conditions: AML blast lysates, excess probe; REMSA with excess probe; cooled non-denaturing 8% polyacrylamide gel in 0.25x TBE; binding buffer, pH and temperature not given (refers to ref 40); protein in an extract
T1 sequence (looked up, limits assumed): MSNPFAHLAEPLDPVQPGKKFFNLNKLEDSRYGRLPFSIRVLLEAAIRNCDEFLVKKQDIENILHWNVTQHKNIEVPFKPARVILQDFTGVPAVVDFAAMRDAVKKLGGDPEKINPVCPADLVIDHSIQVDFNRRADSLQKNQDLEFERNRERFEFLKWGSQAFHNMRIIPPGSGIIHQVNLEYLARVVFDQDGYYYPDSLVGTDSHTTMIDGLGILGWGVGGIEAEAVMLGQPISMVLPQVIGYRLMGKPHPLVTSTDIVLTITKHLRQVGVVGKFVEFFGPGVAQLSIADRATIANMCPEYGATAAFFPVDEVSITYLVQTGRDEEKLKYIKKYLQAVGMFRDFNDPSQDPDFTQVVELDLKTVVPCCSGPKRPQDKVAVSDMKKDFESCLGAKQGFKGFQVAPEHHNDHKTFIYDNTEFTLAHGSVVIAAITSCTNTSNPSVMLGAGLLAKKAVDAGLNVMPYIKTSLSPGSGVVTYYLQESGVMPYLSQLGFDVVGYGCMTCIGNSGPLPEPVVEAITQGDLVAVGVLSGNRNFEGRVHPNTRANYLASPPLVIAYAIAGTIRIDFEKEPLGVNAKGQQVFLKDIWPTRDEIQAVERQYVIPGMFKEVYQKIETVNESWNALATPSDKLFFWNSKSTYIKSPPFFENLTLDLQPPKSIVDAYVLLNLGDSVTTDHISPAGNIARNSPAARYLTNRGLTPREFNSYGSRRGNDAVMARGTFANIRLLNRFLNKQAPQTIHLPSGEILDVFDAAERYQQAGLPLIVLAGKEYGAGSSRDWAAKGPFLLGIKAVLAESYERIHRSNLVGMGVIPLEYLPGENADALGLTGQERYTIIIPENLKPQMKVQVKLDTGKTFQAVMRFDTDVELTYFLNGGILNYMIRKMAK

[2] = target: T2, recombinant IRP1 (rIRP1) (UniProt P21399); conditions: REMSA with excess probe; cooled non-denaturing 8% polyacrylamide gel in 0.25x TBE; binding buffer, pH and temperature not given (refers to ref 40); recombinant protein
T2 sequence (looked up, limits assumed): T1 sequence (looked up, limits assumed)

[3] = target: T3, recombinant IRP2 (UniProt P48200); conditions: REMSA with excess probe; cooled non-denaturing 8% polyacrylamide gel in 0.25x TBE; binding buffer, pH and temperature not given (refers to ref 40); recombinant protein
T3 sequence (looked up, limits assumed): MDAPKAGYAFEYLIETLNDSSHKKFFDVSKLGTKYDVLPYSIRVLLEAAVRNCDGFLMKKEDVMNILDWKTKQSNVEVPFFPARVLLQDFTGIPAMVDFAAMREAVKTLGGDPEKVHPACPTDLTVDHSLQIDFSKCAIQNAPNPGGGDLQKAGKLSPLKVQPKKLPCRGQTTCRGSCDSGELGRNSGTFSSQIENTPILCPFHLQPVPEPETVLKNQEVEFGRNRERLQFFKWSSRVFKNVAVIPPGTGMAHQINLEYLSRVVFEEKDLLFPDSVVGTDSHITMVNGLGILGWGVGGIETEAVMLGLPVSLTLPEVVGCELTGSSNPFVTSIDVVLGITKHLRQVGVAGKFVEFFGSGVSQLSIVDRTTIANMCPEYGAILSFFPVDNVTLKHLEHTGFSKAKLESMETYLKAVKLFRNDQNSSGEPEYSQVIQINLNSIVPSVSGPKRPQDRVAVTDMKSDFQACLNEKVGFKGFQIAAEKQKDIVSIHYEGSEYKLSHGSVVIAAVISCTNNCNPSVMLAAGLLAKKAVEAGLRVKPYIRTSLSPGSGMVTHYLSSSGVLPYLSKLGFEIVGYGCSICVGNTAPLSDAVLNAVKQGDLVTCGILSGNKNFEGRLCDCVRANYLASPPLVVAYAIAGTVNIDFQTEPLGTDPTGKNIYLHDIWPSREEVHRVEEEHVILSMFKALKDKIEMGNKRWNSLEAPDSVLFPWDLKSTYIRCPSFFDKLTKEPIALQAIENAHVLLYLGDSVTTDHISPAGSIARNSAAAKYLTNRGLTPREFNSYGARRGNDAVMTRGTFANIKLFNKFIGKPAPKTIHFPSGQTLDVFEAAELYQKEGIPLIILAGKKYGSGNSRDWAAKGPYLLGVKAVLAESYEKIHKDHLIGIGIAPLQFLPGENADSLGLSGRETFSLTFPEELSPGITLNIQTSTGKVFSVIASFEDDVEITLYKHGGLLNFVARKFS

Measured: binding result

GGUUUCCUGCUUCAACAGUGCUUGGACGGAACCC [human ferritin H IRE probe]
binds: all assays above
